Test results taken from patent publication US20260091080A1.
No constants are given. Whether binding was seen depends on the method and setting. Binding seen in cells or lysates may run through a third protein. Some binding calls cover weakened binding; strength is not graded here. Where a sequence is shown, tags or fusion partners need not be part of it.

Tests used:
[1] = target: TDP-43 wild type (non-mutant), C-terminal V5 tag (pcDNA3.1/V5) (human) (UniProt Q13148); assay: co-precipitation with expressed Fx
[2] = target: TDP-43 wild type (non-mutant), C-terminal V5 tag (pcDNA3.1/V5) (human) (UniProt Q13148); assay: co-immunoprecipitation after co-expression

B1: 14-3-3θ-Fx-V5 (α-helix 6 (αF) of 14-3-3θ alone) (peptide, not shown: small tags and cut ends)
peptide: GDDRKQTIDNSQGAYQEAFDISKKEMQPTH
In the case of B1, the binding [1] is reported as “binds” and the binding [2] is reported as “binds”.
